Assay results reported in article PMC4434539.
These are yes or no findings as the source states them, for the method shown. Binding seen in cells or lysates may run through a third protein. Some entries that bind do so weakly or less than the wild type. Tags and fused reporters may be left off the sequences shown. Each block holds one binder with its values, some of them ahead of it.

Experiments:
[1] = target: T1, Mic60-FLAG (S. cerevisiae) (UniProt P36112); test: co-IP; ∆MICOS cells expressing Mic60-FLAG at the MIC60 locus and pMic60-EGFP from the ura3 locus; cleared lysate cross-linked with 1 mM DSP, solubilised with 1% digitonin; purified with α-FLAG antibody and protein G beads or with α-GFP MicroBeads; Western blot
T1 sequence: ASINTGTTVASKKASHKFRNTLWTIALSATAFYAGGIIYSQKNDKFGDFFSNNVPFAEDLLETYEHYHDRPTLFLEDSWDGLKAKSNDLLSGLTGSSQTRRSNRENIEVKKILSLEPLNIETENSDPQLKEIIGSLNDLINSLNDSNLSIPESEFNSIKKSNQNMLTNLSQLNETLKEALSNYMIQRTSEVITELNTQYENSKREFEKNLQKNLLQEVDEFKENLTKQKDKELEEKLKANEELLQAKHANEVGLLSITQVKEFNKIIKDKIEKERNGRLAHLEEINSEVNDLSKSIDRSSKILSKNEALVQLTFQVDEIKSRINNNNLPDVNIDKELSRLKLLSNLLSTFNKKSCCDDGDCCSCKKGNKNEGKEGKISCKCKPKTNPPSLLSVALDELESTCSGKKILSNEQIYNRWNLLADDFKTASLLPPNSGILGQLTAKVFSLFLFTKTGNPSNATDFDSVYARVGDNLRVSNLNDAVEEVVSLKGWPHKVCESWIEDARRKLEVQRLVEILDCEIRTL

[2] = target: T2, Mic60-EGFP (S. cerevisiae) (UniProt P36112); test: as above
T2 sequence: T1 sequence

binding [1]: binds
B1: Mic60-EGFP (protein, UniProt P36112 18-540)
chain: T1 sequence

binding [2]: binds
B2: Mic60-FLAG (protein, UniProt P36112 18-540)
chain: T1 sequence
